{"source": "PubChem BioAssay AID1159584 (Peter MacCallum Cancer Centre, 2016)", "screen": "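Genes whose loss is lethal only together with E-cadherin loss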 (primary screen)", "cells": "human MCF10A breast epithelial cells, parental and CDH1-null", "knock-down reagent": "siRNA against human genes", "measurement": "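ATP luminescence (CellTiter-Glo) viability per line relative to mean mock wells over all plates, and the ratio of CDH1-null to parental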", "scale": "CDH1-null / parental viability ratio: higher = CDH1-null cells survive relatively better than parental", "note": "Shown is a random part of about 18,000 deposited reagents. Further read-outs or replicates are left out here. Not given: the amount of reagent, the time to read-out."}
{"gene symbol": "DISP1 (dispatched RND transporter family member 1)", "CDH1-null / parental viability ratio": 1.02}
{"gene symbol": "PRKD3 (protein kinase D3)", "CDH1-null / parental viability ratio": 1.19}
{"gene symbol": "FFAR3 (free fatty acid receptor 3)", "CDH1-null / parental viability ratio": 0.76}
{"gene symbol": "SP4 (Sp4 transcription factor)", "CDH1-null / parental viability ratio": 0.95}
{"gene symbol": "TMEM45A (transmembrane protein 45A)", "CDH1-null / parental viability ratio": 1}
{"gene symbol": "ZNF22-AS1 (ZNF22 antisense RNA 1)", "CDH1-null / parental viability ratio": 1.16}
{"gene symbol": "NNT (nicotinamide nucleotide transhydrogenase)", "CDH1-null / parental viability ratio": 0.86}
{"gene symbol": "NR2F2 (nuclear receptor subfamily 2 group F member 2)", "CDH1-null / parental viability ratio": 1.01}
{"gene symbol": "LDLR (low density lipoprotein receptor)", "CDH1-null / parental viability ratio": 0.98}
{"gene symbol": "MXRA8 (matrix remodeling associated 8)", "CDH1-null / parental viability ratio": 1.37}
{"gene symbol": "PTPN22 (protein tyrosine phosphatase non-receptor type 22)", "CDH1-null / parental viability ratio": 1.34}
{"gene symbol": "MAML2 (mastermind like transcriptional coactivator 2)", "CDH1-null / parental viability ratio": 1.06}
{"gene symbol": "NEGR1 (neuronal growth regulator 1)", "CDH1-null / parental viability ratio": 0.86}
{"gene symbol": "PYHIN1 (pyrin and HIN domain family member 1)", "CDH1-null / parental viability ratio": 0.67}
{"gene symbol": "CCDC88C (coiled-coil and HOOK domain protein 88C)", "CDH1-null / parental viability ratio": 1.22}
{"gene symbol": "NEUROG2 (neurogenin 2)", "CDH1-null / parental viability ratio": 1.22}
{"gene symbol": "ALOX5 (arachidonate 5-lipoxygenase)", "CDH1-null / parental viability ratio": 1.24}
{"gene symbol": "IPCEF1 (interaction protein for cytohesin exchange factors 1)", "CDH1-null / parental viability ratio": 0.84}
{"gene symbol": "RPP38-DT (RPP38 divergent transcript)", "CDH1-null / parental viability ratio": 1.45}
{"gene symbol": "SATL1 (spermidine/spermine N1-acetyl transferase like 1)", "CDH1-null / parental viability ratio": 1.07}
{"gene symbol": "CLN3 (CLN3 lysosomal/endosomal transmembrane protein, battenin)", "CDH1-null / parental viability ratio": 1.1}
{"gene symbol": "DNAJB3P (DnaJ heat shock protein family (Hsp40) member B3, pseudogene)", "CDH1-null / parental viability ratio": 1.05}
{"gene symbol": "MPST (mercaptopyruvate sulfurtransferase)", "CDH1-null / parental viability ratio": 1}
{"gene symbol": "TCEAL1 (transcription elongation factor A like 1)", "CDH1-null / parental viability ratio": 0.83}
{"gene symbol": "CYGB (cytoglobin)", "CDH1-null / parental viability ratio": 0.94}
{"gene symbol": "PABPC3 (poly(A) binding protein cytoplasmic 3)", "CDH1-null / parental viability ratio": 1.24}
{"gene symbol": "MB (myoglobin)", "CDH1-null / parental viability ratio": 1.01}
{"gene symbol": "CYP11A1 (cytochrome P450 family 11 subfamily A member 1)", "CDH1-null / parental viability ratio": 0.96}
{"gene symbol": "MAN2A2 (mannosidase alpha class 2A member 2)", "CDH1-null / parental viability ratio": 1.02}
{"gene symbol": "LPCAT3 (lysophosphatidylcholine acyltransferase 3)", "CDH1-null / parental viability ratio": 1.03}
{"gene symbol": "TMCC3 (transmembrane and coiled-coil domain family 3)", "CDH1-null / parental viability ratio": 0.91}
{"gene symbol": "PHLPP2 (PH domain and leucine rich repeat protein phosphatase 2)", "CDH1-null / parental viability ratio": 0.79}
{"gene symbol": "DNAJC13 (DnaJ heat shock protein family (Hsp40) member C13)", "CDH1-null / parental viability ratio": 1.05}
{"gene symbol": "ABHD13 (abhydrolase domain containing 13)", "CDH1-null / parental viability ratio": 0.79}
{"gene symbol": "LRIT3 (leucine rich repeat, Ig-like and transmembrane domains 3)", "CDH1-null / parental viability ratio": 1.43}

Individual results from above:
For “CDH1-null / parental viability ratio”, LRIT3 (leucine rich repeat, Ig-like and transmembrane domains 3) is entered as 1.43
For “CDH1-null / parental viability ratio”, TMCC3 (transmembrane and coiled-coil domain family 3) has 0.91
